In paper PMC13582825:
These are yes or no findings as the source states them, for the method shown. Binding seen in cells or lysates may run through a third protein. Some results given as binding are weak or reduced against the parent protein; the word gives no strength. Tags and fused reporters may be left off the sequences shown.

The chains behind the UniProt entries cited, without tags or fusion partners.
UniProt P67775: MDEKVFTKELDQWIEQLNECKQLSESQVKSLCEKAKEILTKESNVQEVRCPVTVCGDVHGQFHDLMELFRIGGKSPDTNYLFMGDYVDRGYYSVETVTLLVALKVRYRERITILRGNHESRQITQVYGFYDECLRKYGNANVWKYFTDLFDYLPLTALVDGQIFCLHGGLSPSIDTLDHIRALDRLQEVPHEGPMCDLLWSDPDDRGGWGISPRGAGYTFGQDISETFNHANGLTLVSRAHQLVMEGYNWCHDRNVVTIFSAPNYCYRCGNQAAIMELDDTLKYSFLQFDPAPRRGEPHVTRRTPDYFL
UniProt A7MCY6: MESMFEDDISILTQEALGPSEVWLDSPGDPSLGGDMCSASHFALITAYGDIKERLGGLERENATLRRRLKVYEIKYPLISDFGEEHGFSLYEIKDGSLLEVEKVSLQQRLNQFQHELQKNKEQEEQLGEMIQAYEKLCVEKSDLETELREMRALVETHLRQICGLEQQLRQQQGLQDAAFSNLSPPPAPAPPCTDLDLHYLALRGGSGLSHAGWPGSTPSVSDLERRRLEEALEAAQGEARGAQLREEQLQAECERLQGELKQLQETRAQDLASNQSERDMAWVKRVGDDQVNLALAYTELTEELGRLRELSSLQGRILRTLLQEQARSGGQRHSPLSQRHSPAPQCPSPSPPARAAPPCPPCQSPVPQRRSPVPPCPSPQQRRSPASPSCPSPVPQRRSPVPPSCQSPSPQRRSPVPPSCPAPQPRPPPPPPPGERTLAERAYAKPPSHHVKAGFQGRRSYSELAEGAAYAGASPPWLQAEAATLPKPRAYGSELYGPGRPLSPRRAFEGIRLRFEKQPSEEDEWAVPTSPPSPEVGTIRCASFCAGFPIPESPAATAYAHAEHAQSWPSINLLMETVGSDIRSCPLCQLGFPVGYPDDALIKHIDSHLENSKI

What was measured:
HA-TANK (human) = biological target: T1, HA-TANK (human) (UniProt Q92844); assay: co-IP; HEK293T co-transfected 24 h with FLAG-SINTBAD and HA-TANK; TANK immunoprecipitated with anti-HA, protein G magnetic beads, washes in RIPA buffer; WB anti-TANK and anti-SINTBAD
T1 sequence: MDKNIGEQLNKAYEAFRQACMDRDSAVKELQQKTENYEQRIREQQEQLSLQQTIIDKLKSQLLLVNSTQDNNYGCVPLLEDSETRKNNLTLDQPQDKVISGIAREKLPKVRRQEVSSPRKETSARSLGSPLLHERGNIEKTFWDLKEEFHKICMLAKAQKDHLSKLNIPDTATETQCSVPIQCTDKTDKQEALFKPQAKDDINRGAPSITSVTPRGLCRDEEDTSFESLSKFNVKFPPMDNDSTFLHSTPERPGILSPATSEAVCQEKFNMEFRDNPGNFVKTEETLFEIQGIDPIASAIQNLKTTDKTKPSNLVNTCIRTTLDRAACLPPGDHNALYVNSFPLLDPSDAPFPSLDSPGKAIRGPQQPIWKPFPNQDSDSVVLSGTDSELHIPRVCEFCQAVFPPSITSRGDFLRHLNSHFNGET

GFP-TBK1 (human) = biological target: T2, GFP-TBK1 (human) (UniProt Q9UHD2); assay: co-IP; TBK1 with HD or TBD-CTD truncations of the adaptor proteins (Supplementary Fig. 5D); HEK293T, lysis and washes in RIPA buffer, protein G magnetic beads
T2 sequence: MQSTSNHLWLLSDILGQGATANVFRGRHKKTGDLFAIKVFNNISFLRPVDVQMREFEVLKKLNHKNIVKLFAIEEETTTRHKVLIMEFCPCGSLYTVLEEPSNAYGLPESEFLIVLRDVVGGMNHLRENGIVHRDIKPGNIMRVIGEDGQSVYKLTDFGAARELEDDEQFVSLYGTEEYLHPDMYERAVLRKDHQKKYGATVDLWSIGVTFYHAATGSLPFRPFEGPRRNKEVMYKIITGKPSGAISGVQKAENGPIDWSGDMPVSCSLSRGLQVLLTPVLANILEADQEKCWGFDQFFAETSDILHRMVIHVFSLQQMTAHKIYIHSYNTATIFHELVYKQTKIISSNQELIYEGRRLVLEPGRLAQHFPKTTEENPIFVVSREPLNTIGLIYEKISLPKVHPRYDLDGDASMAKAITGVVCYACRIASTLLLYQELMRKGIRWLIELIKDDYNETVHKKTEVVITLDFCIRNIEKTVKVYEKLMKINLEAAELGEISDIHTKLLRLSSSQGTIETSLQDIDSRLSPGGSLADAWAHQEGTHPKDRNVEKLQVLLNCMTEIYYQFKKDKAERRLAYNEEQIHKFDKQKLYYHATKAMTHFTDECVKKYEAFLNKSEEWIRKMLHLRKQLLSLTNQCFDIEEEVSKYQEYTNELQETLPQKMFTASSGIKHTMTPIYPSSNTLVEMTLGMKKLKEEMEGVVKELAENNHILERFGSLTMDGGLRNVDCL

GFP-TBK1 1-668 (human) = biological target: T3, GFP-TBK1 1-668 (human) (UniProt Q9UHD2); assay: co-IP; HEK293T; GFP-TBK1 1-668 with the adaptor proteins (Supplementary Fig. 5B); lysis and washes in RIPA buffer, protein G magnetic beads
T3 sequence: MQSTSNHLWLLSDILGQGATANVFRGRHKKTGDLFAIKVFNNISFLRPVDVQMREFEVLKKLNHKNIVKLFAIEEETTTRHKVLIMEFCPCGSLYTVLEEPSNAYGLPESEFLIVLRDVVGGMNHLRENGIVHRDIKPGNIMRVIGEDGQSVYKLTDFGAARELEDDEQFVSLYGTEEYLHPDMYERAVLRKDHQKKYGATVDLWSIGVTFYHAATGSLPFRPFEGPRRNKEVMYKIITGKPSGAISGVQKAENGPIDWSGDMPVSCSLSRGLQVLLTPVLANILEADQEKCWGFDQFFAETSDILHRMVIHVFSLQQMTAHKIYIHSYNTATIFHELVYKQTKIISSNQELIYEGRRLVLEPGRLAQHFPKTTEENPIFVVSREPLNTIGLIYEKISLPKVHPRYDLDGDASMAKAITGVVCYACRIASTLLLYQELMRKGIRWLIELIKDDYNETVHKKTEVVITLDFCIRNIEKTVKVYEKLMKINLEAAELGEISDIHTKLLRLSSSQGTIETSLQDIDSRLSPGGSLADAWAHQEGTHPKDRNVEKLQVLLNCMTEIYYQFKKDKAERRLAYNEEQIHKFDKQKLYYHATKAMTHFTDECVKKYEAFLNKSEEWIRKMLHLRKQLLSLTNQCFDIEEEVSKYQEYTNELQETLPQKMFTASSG

GFP-PP2A-Cα (human) = GFP-PP2A-Cα (human) (UniProt P67775); assay: co-IP; GFP-PP2A-Cα immunoprecipitated; NAP1 and TBK1 looked for (Supplementary Fig. 8G)

“FLAG-SINTBAD (from UniProt A7MCY6 1-615)” was tested, and the binding (HA-TANK (human)) was “no binding”.

B1: mC-TANK 129-425 (domain or fragment, UniProt Q92844 129-425)
chain: SPLLHERGNIEKTFWDLKEEFHKICMLAKAQKDHLSKLNIPDTATETQCSVPIQCTDKTDKQEALFKPQAKDDINRGAPSITSVTPRGLCRDEEDTSFESLSKFNVKFPPMDNDSTFLHSTPERPGILSPATSEAVCQEKFNMEFRDNPGNFVKTEETLFEIQGIDPIASAIQNLKTTDKTKPSNLVNTCIRTTLDRAACLPPGDHNALYVNSFPLLDPSDAPFPSLDSPGKAIRGPQQPIWKPFPNQDSDSVVLSGTDSELHIPRVCEFCQAVFPPSITSRGDFLRHLNSHFNGET
For B1, the binding (GFP-TBK1 (human)) was “binds”.

B2: mC-TANK (protein, UniProt Q92844 1-425)
chain: T1 sequence
For B2, the binding (GFP-TBK1 1-668 (human)) was “no binding”.

B3: mC-TANK 1-129 (domain or fragment, UniProt Q92844 1-129)
chain: MDKNIGEQLNKAYEAFRQACMDRDSAVKELQQKTENYEQRIREQQEQLSLQQTIIDKLKSQLLLVNSTQDNNYGCVPLLEDSETRKNNLTLDQPQDKVISGIAREKLPKVRRQEVSSPRKETSARSLGS
With B3 the binding (GFP-TBK1 (human)) was “no binding”.

B4: TBK1 (as tested with immunoprecipitated GFP-PP2A-Cα) (enzyme, UniProt Q9UHD2 1-729)
chain: T2 sequence
In the case of B4, the binding (GFP-PP2A-Cα (human)) is reported as “no binding”.
